Measured values taken from the supplement of paper PMC10849652.
The list shows a part of the results.

Chains of the proteins cited; added tags and fusions are not shown. Lines headed by an entry give the natural chain unless they say otherwise; changes in a name come on top.
UniProt Q9BV10: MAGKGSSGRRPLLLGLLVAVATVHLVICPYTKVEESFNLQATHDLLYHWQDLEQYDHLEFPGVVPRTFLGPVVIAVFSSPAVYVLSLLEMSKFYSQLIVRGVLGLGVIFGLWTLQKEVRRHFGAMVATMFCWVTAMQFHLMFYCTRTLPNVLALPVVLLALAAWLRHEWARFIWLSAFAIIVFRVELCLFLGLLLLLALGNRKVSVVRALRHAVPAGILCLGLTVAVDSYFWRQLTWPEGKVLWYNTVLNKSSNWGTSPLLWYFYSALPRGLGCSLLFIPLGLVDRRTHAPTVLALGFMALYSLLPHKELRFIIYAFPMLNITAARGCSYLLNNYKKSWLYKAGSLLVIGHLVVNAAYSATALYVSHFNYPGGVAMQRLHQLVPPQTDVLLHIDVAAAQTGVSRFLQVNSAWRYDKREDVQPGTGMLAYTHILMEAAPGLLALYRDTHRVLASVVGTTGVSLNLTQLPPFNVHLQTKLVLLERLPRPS
UniProt Q92685: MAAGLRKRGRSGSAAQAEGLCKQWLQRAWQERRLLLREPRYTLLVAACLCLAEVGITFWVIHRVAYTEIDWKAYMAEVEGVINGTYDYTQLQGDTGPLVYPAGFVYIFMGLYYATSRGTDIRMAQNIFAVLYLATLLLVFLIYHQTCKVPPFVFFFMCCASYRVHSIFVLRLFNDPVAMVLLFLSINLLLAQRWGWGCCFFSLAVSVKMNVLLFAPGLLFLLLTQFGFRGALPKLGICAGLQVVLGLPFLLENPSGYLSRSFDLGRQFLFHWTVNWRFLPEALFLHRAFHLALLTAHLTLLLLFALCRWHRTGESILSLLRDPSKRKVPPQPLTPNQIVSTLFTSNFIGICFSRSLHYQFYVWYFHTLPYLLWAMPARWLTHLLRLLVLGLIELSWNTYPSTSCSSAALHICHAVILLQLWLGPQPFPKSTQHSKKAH
UniProt Q7Z6G8: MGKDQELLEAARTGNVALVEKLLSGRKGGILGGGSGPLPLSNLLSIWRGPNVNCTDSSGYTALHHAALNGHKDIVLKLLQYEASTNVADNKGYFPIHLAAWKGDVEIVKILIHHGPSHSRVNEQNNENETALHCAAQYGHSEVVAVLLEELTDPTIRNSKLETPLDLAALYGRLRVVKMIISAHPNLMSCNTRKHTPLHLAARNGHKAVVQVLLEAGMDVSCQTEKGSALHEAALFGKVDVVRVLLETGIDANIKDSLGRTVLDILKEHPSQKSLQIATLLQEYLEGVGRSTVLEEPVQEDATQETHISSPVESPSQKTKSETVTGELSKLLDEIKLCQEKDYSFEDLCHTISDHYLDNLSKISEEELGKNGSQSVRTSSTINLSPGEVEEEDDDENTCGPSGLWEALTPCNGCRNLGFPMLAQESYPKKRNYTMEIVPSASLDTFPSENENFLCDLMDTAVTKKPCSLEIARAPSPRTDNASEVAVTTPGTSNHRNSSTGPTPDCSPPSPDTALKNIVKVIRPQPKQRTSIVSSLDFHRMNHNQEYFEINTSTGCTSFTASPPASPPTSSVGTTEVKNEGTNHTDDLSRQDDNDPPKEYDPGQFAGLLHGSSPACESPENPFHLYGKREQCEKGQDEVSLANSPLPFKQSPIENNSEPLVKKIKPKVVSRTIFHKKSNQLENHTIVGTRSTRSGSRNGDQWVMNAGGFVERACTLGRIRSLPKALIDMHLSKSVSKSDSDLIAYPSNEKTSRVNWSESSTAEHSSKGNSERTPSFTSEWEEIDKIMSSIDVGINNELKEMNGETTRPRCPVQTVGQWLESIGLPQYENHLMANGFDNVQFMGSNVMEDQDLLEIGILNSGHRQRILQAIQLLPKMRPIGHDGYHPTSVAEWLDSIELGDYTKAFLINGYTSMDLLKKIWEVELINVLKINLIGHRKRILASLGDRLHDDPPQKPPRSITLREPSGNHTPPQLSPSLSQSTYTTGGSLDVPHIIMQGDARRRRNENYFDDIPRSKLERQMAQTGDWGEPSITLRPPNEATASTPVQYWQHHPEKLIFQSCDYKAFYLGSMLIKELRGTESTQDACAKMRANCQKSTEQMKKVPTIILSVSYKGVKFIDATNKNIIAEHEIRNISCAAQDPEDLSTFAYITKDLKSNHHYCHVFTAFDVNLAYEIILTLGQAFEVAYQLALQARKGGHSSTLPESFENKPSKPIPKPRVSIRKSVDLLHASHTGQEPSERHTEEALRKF
UniProt Q6ZW76: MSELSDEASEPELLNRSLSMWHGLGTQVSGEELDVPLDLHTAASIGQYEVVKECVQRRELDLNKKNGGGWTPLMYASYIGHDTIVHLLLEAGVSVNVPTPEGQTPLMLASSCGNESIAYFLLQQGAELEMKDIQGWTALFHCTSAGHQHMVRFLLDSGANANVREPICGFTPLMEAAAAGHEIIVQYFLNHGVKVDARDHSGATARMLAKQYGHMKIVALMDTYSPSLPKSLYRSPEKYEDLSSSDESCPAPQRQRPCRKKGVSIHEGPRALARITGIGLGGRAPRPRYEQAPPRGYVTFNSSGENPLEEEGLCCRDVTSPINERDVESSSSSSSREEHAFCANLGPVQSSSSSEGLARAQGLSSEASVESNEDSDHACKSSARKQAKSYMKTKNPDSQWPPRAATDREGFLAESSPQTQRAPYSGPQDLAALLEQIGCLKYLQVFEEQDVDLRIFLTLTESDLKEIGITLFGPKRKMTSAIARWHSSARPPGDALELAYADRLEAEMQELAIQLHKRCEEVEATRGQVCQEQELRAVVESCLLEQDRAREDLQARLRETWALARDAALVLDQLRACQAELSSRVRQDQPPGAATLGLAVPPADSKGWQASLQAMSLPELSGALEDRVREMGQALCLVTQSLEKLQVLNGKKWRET
UniProt Q86YJ7: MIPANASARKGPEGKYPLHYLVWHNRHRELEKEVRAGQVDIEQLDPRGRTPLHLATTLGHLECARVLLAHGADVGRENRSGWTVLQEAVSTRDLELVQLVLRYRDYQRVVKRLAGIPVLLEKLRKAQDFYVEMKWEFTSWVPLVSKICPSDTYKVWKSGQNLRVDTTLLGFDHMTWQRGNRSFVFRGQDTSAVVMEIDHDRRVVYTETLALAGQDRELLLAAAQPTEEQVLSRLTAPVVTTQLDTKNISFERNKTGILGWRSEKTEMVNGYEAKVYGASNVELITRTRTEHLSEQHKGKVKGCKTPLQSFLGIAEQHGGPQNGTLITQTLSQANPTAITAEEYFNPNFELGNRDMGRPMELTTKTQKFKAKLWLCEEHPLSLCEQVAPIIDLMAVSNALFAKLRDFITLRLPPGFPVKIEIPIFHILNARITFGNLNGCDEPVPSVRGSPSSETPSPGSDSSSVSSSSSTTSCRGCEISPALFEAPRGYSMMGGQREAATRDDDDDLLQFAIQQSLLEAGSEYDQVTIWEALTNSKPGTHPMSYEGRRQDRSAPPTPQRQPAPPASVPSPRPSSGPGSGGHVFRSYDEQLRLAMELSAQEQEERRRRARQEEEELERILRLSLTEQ
UniProt P22557: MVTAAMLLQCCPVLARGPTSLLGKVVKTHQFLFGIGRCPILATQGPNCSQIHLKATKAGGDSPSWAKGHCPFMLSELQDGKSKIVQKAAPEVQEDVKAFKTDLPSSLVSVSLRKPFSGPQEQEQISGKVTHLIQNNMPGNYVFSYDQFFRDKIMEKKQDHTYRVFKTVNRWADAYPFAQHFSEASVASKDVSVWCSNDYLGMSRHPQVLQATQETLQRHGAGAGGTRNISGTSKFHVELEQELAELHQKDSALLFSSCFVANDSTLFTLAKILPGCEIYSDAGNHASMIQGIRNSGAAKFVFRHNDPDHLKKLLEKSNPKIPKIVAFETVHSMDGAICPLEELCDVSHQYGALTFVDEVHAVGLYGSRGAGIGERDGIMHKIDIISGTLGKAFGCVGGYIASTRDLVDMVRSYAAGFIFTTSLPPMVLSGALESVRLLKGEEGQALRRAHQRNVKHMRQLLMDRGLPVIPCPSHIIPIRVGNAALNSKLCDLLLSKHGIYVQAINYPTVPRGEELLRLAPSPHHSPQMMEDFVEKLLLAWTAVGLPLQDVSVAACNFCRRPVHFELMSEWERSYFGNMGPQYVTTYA
UniProt P49189: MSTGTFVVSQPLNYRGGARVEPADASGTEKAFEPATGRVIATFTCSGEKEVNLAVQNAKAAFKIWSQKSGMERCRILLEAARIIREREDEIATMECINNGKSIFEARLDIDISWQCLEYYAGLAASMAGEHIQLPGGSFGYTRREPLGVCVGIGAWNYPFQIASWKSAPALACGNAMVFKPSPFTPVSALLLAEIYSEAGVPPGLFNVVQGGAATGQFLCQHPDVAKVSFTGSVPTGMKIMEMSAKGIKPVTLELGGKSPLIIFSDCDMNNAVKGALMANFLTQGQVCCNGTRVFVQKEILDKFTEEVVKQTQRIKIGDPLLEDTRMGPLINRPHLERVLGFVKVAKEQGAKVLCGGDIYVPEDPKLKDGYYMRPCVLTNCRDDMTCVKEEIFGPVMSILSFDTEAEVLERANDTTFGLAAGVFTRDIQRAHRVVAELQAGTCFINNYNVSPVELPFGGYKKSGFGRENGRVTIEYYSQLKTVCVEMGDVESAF
UniProt Q9BS18, whole entry, looked up: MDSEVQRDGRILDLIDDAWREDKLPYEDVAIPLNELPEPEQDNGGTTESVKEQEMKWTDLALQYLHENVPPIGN
UniProt P53677: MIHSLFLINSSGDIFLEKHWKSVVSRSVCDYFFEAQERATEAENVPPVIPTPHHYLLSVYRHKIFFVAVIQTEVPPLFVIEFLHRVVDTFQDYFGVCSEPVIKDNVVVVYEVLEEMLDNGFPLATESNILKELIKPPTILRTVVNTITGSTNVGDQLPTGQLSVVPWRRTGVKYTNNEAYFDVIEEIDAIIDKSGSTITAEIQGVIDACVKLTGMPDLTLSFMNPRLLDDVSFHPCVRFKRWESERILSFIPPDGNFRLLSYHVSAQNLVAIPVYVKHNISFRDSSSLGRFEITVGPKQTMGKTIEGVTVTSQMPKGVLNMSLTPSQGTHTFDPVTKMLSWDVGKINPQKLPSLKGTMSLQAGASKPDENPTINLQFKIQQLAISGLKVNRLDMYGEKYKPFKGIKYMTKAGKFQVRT
UniProt Q9BTT0: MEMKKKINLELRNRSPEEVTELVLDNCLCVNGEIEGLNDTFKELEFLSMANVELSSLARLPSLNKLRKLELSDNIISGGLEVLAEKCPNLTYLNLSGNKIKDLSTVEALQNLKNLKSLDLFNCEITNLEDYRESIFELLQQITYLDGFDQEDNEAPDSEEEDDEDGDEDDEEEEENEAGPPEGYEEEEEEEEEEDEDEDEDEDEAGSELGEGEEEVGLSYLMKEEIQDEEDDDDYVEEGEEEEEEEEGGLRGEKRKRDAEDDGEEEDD

Columns and labels:
Assay in all cases: log2 fold change, soluble protein after heating vs DMSO (PISA); higher = thermal stabilisation; K562 lysate, 10 uM; active = over 0.2 and 3.5 SD of the protein, either way, in both replicates (recomputed)
dasatinib = compound: Cc1nc(Nc2ncc(C(=O)Nc3c(C)cccc3Cl)s2)cc(N2CCN(CCO)CC2)n1 [dasatinib]
Procedure, shortened: (§1)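 Quantification was by TMTpro 16plex LC-MS/MS with equalised channel sums, applied to the supernatant after 21,000xg for 90 min. Samples were crude K562 extract at 1 mg/mL protein in PBS pH 7.4 with 1 mM MgCl2, treated with 10 μM compound for 30 min, heated for 3 min across 48°C-58°C, pooled and brought to 0.5% NP-40 at 4°C. Values are log-two fold changes in thermal stability relative to solvent controls, from duplicates.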

[1] = compound: Cn1cc(-c2ccc3c(c2)CCN3C(=O)Cc2cccc(C(F)(F)F)c2)c2c(N)ncnc21
Procedure, shortened: as §1

[2] = compound: NC(=O)c1cnc(N[C@@H]2CCCC[C@@H]2N)nc1Nc1cccc(-n2nccn2)c1
Procedure, shortened: as §1

[3] = compound: NC1(c2ccc(-c3nc4ccn5c(=O)[nH]nc5c4cc3-c3ccccc3)cc2)CCC1
Procedure, shortened: as §1

[4] = compound: NCC(=O)Nc1ccc(-n2nc(C(F)(F)F)cc2-c2ccc3c(ccc4ccccc43)c2)cc1
Procedure, shortened: as §1

vorinostat = compound: O=C(CCCCCCC(=O)Nc1ccccc1)NO [vorinostat]
Procedure, shortened: as §1

silmitasertib = compound: O=C(O)c1ccc2c(c1)nc(Nc1cccc(Cl)c1)c1ccncc12 [silmitasertib]
Procedure, shortened: as §1

entospletinib = compound: c1cn2cc(-c3ccc4cn[nH]c4c3)nc(Nc3ccc(N4CCOCC4)cc3)c2n1 [entospletinib]
Procedure, shortened: as §1

quisinostat = compound: Cn1cc(CNCC2CCN(c3ncc(C(=O)NO)cn3)CC2)c2ccccc21 [quisinostat]
Procedure, shortened: as §1

[5] = compound: NC(=O)Nc1cc(-c2cccc(F)c2)sc1C(=O)N[C@H]1CCCNC1
Procedure, shortened: as §1

[6] = compound: O=C1NC(=O)C(c2cnc3ccccn23)=C1c1cn2c3c(cc(F)cc13)CN(C(=O)N1CCCCC1)CC2
Procedure, shortened: as §1

Q: With ALG12 (UniProt Q9BV10) as the target, how does the log2 fold change (dasatinib) read?
A: inactive: 0.027

Q: What about the log2 fold change [1] of the same target?
A: inactive: 0.045

Q: What about the log2 fold change [2] of the same target?
A: inactive: -0.058

Q: What about the log2 fold change [3] of the same target?
A: inactive: 0.11

Q: And the log2 fold change [4]?
A: inactive: 0.035

Q: What about the log2 fold change (vorinostat) of the same target?
A: inactive: 0.129

Q: What about the log2 fold change (silmitasertib) of the same target?
A: inactive: -0.089

Q: And the log2 fold change (entospletinib)?
A: inactive: 0.051

Q: Which log2 fold change [2] does the source give for AP1G1 (UniProt H3BV30) here?
A: inactive: 0.016

Q: Which results are given for ALG3 (UniProt Q92685)?
A: log2 fold change (dasatinib): inactive: -0.049; log2 fold change [1]: inactive: 0.068; log2 fold change (quisinostat): inactive: 0.077; log2 fold change [5]: inactive: -0.017; log2 fold change [2]: inactive: 0.092; log2 fold change [3]: inactive: -0.036; log2 fold change [4]: inactive: -0.107; log2 fold change (vorinostat): active: 0.461; log2 fold change (silmitasertib): inactive: 0.285; log2 fold change [6]: inactive: -0.157; log2 fold change (entospletinib): inactive: -0.01

Q: Which log2 fold change [2] does the source give for ANKS1B (UniProt Q7Z6G8) here?
A: inactive: -0.041

Q: With ANKS3 (UniProt Q6ZW76) as the target, how does the log2 fold change (dasatinib) read?
A: inactive: -0.074

Q: What about the log2 fold change [1] of the same target?
A: inactive: 0.23

Q: What about the log2 fold change (quisinostat) of the same target?
A: inactive: -0.192

Q: What about the log2 fold change [5] of the same target?
A: inactive: -0.018

Q: And the log2 fold change [2]?
A: inactive: 0.127

Q: What about the log2 fold change [4] of the same target?
A: inactive: 0.013

Q: And the log2 fold change [6]?
A: inactive: 0.016

Q: What about the log2 fold change (entospletinib) of the same target?
A: inactive: 0.014

Q: With AP2M1 (UniProt C9JPV8) as the target, how does the log2 fold change [2] read?
A: inactive: 0.391

Q: Which log2 fold change (entospletinib) does the source give for ANKRD12 (UniProt Q6UB98) here?
A: inactive: -0.047

Q: ANGPTL4 (UniProt M0R3A2) was tested. Which log2 fold change [2] did it give?
A: inactive: 0.227

Q: What about the log2 fold change [3] of the same target?
A: inactive: 0.167

Q: What about the log2 fold change [4] of the same target?
A: inactive: -0.08

Q: And the log2 fold change (vorinostat)?
A: inactive: 0.053

Q: What about the log2 fold change (silmitasertib) of the same target?
A: inactive: -0.147

Q: And the log2 fold change (entospletinib)?
A: inactive: -0.12

Q: ANKRD13B (UniProt Q86YJ7) was tested. Which log2 fold change (dasatinib) did it give?
A: inactive: -0.073

Q: And the log2 fold change [1]?
A: inactive: 0.19

Q: And the log2 fold change [2]?
A: inactive: -0.025

Q: And the log2 fold change (entospletinib)?
A: inactive: -0.119

Q: How did the log2 fold change (quisinostat) turn out when ALAS2 (UniProt P22557) was run?
A: inactive: -0.014

Q: What about the log2 fold change [5] of the same target?
A: inactive: 0

Q: And the log2 fold change [6]?
A: inactive: -0.016

Q: Which log2 fold change (dasatinib) does the source give for ALDH9A1 (UniProt P49189) here?
A: inactive: 0.008

Q: And the log2 fold change [1]?
A: inactive: -0.097

Q: And the log2 fold change (quisinostat)?
A: inactive: 0.013

Q: And the log2 fold change [5]?
A: inactive: 0.043

Q: What about the log2 fold change [4] of the same target?
A: inactive: 0.217

Q: What about the log2 fold change [6] of the same target?
A: inactive: 0.012

Q: ANAPC13 (UniProt Q9BS18) was tested. Which log2 fold change [4] did it give?
A: inactive: -0.027

Q: What about the log2 fold change (entospletinib) of the same target?
A: inactive: -0.107

Q: For AP2S1 (UniProt M0QZ21), which log2 fold change [2] is on record?
A: inactive: 0.178

Q: With AP3M2 (UniProt P53677) as the target, how does the log2 fold change (dasatinib) read?
A: inactive: -0.24

Q: And the log2 fold change [1]?
A: inactive: 0.032

Q: And the log2 fold change [2]?
A: inactive: 0.032

Q: What about the log2 fold change [3] of the same target?
A: inactive: 0.038

Q: What about the log2 fold change [4] of the same target?
A: inactive: 0.042

Q: And the log2 fold change (vorinostat)?
A: inactive: -0.014

Q: What about the log2 fold change (silmitasertib) of the same target?
A: inactive: -0.084

Q: And the log2 fold change (entospletinib)?
A: inactive: 0.033

Q: For ANP32E isoform 3 (UniProt Q9BTT0), which log2 fold change [4] is on record?
A: inactive: 0.135

Q: And the log2 fold change (entospletinib)?
A: inactive: -0.095
